Data reported in PubChem BioAssay AID1918952 (Molecular Pharmacology Branch, DTP, NCI, 2023).
“And” between values parts separate entries of the source, which are not always exact repeats. Identical values can stand only once. Further values from the same series stand in other lists.

Tested on: LG0703-F948-PDC complex spheroid viability
Assay: Anticancer human tumor LG0703-F948-PDC patient-derived lung adenocarcinoma cell line growth inhibition
Details: stronger effect = lower value
Excerpt: Multicellular complex tumor spheroid response to LSD1 Inhibitor Iadademstat in combination with a variety of drugs and investigational agents in selected tumor cell lines
The current study was undertaken to assess response to LSD1 inhibitors in combination with standard-of-care drugs and investigational agents in solid tumor complex spheroid models as well as in the K-562 leukemia. Complex spheroids include a stromal component modeled by human endothelial cells (HUVEC) and fibroblasts modeled by human mesenchymal stem cells (MSCs). The concentration ranges selected for each drug and investigational agent were based upon clinically achievable concentrations if the clinical Cmax of the agent was known.
Compounds. The drugs and investigational agents used in this study are listed on Table 1. All of the agents used, including staurosporine (NSC755774) and gemcitabine (NSC613327), were obtained from the Developmental Therapeutics Program, NCI. FDA-approved anticancer drugs are available from the NCI at http://dtp.nci.nih.gov/branches/dscb/oncology_drugset_explanation.html. Drugs and investigational agents were >95% pure by proton nuclear magnetic resonance (NMR) and liquid chromatography/mass spectrometry (LC/MS). […] If the clinical Cmax for an agent had not been determined, the highest concentration tested was 10 microM. […]
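Note: spheroids exposed to agents for seven days before readout; 100% = DMSO vehicle control wells as normalization base.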

SMILES	viability, T/C (compound 10 µM)	viability, T/C (compound 0.1 µM)
NC1CCC(NC2CC2c2ccccc2)CC1 (configuration not stated)	112% and 105%	
NC1CC1c1ccc(-c2cccc(O)c2)cc1 (configuration not stated)		105% [middle of 23 runs]
